Results deposited as PubChem BioAssay AID652243 (Drosophila RNAi Screening Center, 2013)
The screen tested about 24,000 reagents; shown is a random part of those with a known target gene and a result. Over the whole deposit, 246 (1%) are marked active. 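Plates not normalised; calls are printed but the firefly/Renilla ratio behind them is not deposited; fold cut for lowering reported inconsistently.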 Raw values are not corrected between plates. Entries without a mark were called inactive. The numbers tell different reagents against one gene apart. A plus sign joins genes that one reagent is predicted to hit. The record does not give: the amount of reagent.

- Purpose: 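Fly genes required for human androgen receptor driven transcription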 (primary screen)
- Cell system: Drosophila S2R+ cells
- Reagents: long dsRNA against Drosophila genes
- Timing: 72 h (48 h, then 24 h hormone)
- Conditions: synthetic androgen R1881 at 10 nM for 24 h
- Detection: 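Per-well raw luminescence of the androgen-driven firefly reporter and of the Renilla control, two replicates each, without normalisation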
- Scale: firefly reporter light: higher = more light from androgen-responsive reporter; Renilla control light: higher = more constitutive control signal (cell number, transfection)
- Call rule: 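Hit when the log firefly-to-Renilla ratio dropped or increased by a fixed fold versus the mean of GFP or LacZ controls across duplicate plates; lowering cut given as 1.5 and as 3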
- Calls: active = hit: reporter lowered or raised; inactive = no hit

After knock-down of Lhr (GeneID 36957) #1 the results were firefly reporter light, replicate 1 = 1.24e6; firefly reporter light, replicate 2 = 7.03e5; Renilla control light, replicate 1 = 1.99e6; Renilla control light, replicate 2 = 1.38e6. Knock-down of Lhr (GeneID 36957) #2 gave: firefly reporter light, replicate 1 = 3.78e5; firefly reporter light, replicate 2 = 4.18e5; Renilla control light, replicate 1 = 3.57e5; Renilla control light, replicate 2 = 2.53e5. trr (GeneID 31149) #1 gave firefly reporter light, replicate 1 = 3.22e5; firefly reporter light, replicate 2 = 4.35e5; Renilla control light, replicate 1 = 1.02e6; Renilla control light, replicate 2 = 1.29e6. Depletion of trr (GeneID 31149) #2 came out at: firefly reporter light, replicate 1 = 3.26e5; firefly reporter light, replicate 2 = 2.80e5; Renilla control light, replicate 1 = 1.53e6; Renilla control light, replicate 2 = 1.36e6. After knock-down of CG34267 + CG34268, the screen gave firefly reporter light, replicate 1 = 9.05e5; firefly reporter light, replicate 2 = 9.32e5; Renilla control light, replicate 1 = 1.79e6; Renilla control light, replicate 2 = 1.55e6. CG2147 (GeneID 31759) gave firefly reporter light, replicate 1 = 1.43e5; firefly reporter light, replicate 2 = 80059; Renilla control light, replicate 1 = 8.40e5; Renilla control light, replicate 2 = 6.99e5.

Depletion of CG42233 (GeneID 43754) #1 resulted in: firefly reporter light, replicate 1 = 2.80e5; firefly reporter light, replicate 2 = 3.18e5; Renilla control light, replicate 1 = 2.05e6; Renilla control light, replicate 2 = 3.51e6. After knock-down of CG42233 (GeneID 43754) #2, the screen gave firefly reporter light, replicate 1 = 1.91e5; firefly reporter light, replicate 2 = 2.28e5; Renilla control light, replicate 1 = 2.01e6; Renilla control light, replicate 2 = 2.06e6. Depletion of CG42233 (GeneID 43754) #3 resulted in: firefly reporter light, replicate 1 = 9.28e5; firefly reporter light, replicate 2 = 9.11e5; Renilla control light, replicate 1 = 7.02e5; Renilla control light, replicate 2 = 8.88e5. CG42233 (GeneID 43754) #4 scored firefly reporter light, replicate 1 = 3.25e5; firefly reporter light, replicate 2 = 4.81e5; Renilla control light, replicate 1 = 4.52e5; Renilla control light, replicate 2 = 5.68e5. Silencing of Vha44 (GeneID 36826) #1 gave: firefly reporter light, replicate 1 = 6.34e5; firefly reporter light, replicate 2 = 7.13e5; Renilla control light, replicate 1 = 1.17e6; Renilla control light, replicate 2 = 1.16e6. After knock-down of Vha44 (GeneID 36826) #2 the results were firefly reporter light, replicate 1 = 1.30e5; firefly reporter light, replicate 2 = 1.55e5; Renilla control light, replicate 1 = 1.35e6; Renilla control light, replicate 2 = 1.35e6.

Knock-down of Vha44 (GeneID 36826) #3 gave: firefly reporter light, replicate 1 = 3.00e5; firefly reporter light, replicate 2 = 2.97e5; Renilla control light, replicate 1 = 1.10e6; Renilla control light, replicate 2 = 6.66e5. After knock-down of CG11131 (GeneID 40511) #1 the results were firefly reporter light, replicate 1 = 2.68e5; firefly reporter light, replicate 2 = 2.34e5; Renilla control light, replicate 1 = 1.77e6; Renilla control light, replicate 2 = 1.71e6. After knock-down of CG11131 (GeneID 40511) #2, the record shows firefly reporter light, replicate 1 = 2.45e5; firefly reporter light, replicate 2 = 2.81e5; Renilla control light, replicate 1 = 2.10e6; Renilla control light, replicate 2 = 2.84e6. CG11131 (GeneID 40511) #3 scored firefly reporter light, replicate 1 = 2.00e5; firefly reporter light, replicate 2 = 4.09e5; Renilla control light, replicate 1 = 6.60e5; Renilla control light, replicate 2 = 1.19e6. Knock-down of CG8950 (GeneID 36921) gave: firefly reporter light, replicate 1 = 6.65e5; firefly reporter light, replicate 2 = 3.06e5; Renilla control light, replicate 1 = 6.35e5; Renilla control light, replicate 2 = 3.51e5. With knock-down of RpS19a (GeneID 32635), the screen gave firefly reporter light, replicate 1 = 4.05e5; firefly reporter light, replicate 2 = 4.09e5; Renilla control light, replicate 1 = 2.19e6; Renilla control light, replicate 2 = 2.02e6.

wuc (GeneID 36401) scored firefly reporter light, replicate 1 = 1.66e5; firefly reporter light, replicate 2 = 1.52e5; Renilla control light, replicate 1 = 9.49e5; Renilla control light, replicate 2 = 1.15e6. After knock-down of CG7519 (GeneID 40377), the record shows firefly reporter light, replicate 1 = 2.47e5; firefly reporter light, replicate 2 = 2.94e5; Renilla control light, replicate 1 = 2.05e6; Renilla control light, replicate 2 = 2.64e6. With knock-down of CG1208 (GeneID 40727), the record shows firefly reporter light, replicate 1 = 42502; firefly reporter light, replicate 2 = 39335; Renilla control light, replicate 1 = 4.16e5; Renilla control light, replicate 2 = 4.74e5.

Copied from the list.
CG7519 (GeneID 40377), Renilla control light, replicate 2 = 2.64e6
Vha44 (GeneID 36826) #2, Renilla control light, replicate 2: 1.35e6
